PubChem BioAssay AID1259270 | Sanger Institute – 2017
Here is an unselected part of 160 reagents tested. In the full data, 76 (48%) were called active. 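Four separate siRNAs per gene; calls are per siRNA in one cell line, looser than gene-level validation across several lines.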 Not all columns of the deposit are shown. Not given: the amount of reagent, the time to read-out.

- Assay: 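Follow-up of kinome hits for synergy with three anchor drugs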 (follow-up of hits)
- Cells: human SNU-C5 colorectal cancer cells
- Reagent: single siRNA against human genes
- Treatment: anchor drugs added after knock-down: BYL719 1 µM, cetuximab 5 µg/ml or trametinib 10 nM, or DMSO vehicle
- Measured: 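Cell survival for each replicate, scaled to non-targeting control pool 2 and then averaged; drug given after knock-down; synergy score compares the combined effect with knock-down and drug separately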
- Reading the numbers: synergy score with BYL719 and synergy score with cetuximab and synergy score with trametinib: higher = stronger synergy (extra killing) with the drug
- Rule for the call: 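a score above 0.10 for BYL719, cetuximab or trametinib gives a synergy call; no score above 0.10 means no synergy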
- Calls: active = synergy with at least one drug; inactive = no synergy with any drug

GRK5 (G protein-coupled receptor kinase 5) [SID56476519] — synergy score with BYL719: 0.0418; synergy score with cetuximab: -0.0779; synergy score with trametinib: 0.156; Call: active
GRK5 (G protein-coupled receptor kinase 5) [SID56476520] — synergy score with BYL719: -0.199; synergy score with cetuximab: -0.225; synergy score with trametinib: -0.172; Call: inactive
GRK5 (G protein-coupled receptor kinase 5) [SID56476521] — synergy score with BYL719: 0.0648; synergy score with cetuximab: 0.0804; synergy score with trametinib: 0.123; Call: active
GRK5 (G protein-coupled receptor kinase 5) [SID56476522] — synergy score with BYL719: 0.108; synergy score with cetuximab: -0.0278; synergy score with trametinib: 0.0318; Call: active
SYK (spleen associated tyrosine kinase) [SID56475471] — synergy score with BYL719: 0.0843; synergy score with cetuximab: 0.0437; synergy score with trametinib: 0.365; Call: active
SYK (spleen associated tyrosine kinase) [SID56475472] — synergy score with BYL719: -0.0536; synergy score with cetuximab: 0.0996; synergy score with trametinib: -0.031; Call: inactive
SYK (spleen associated tyrosine kinase) [SID56475473] — synergy score with BYL719: 0.0195; synergy score with cetuximab: -0.0242; synergy score with trametinib: -0.102; Call: inactive
SYK (spleen associated tyrosine kinase) [SID56475474] — synergy score with BYL719: -0.156; synergy score with cetuximab: 0.0804; synergy score with trametinib: 0.284; Call: active
MAPK4 (mitogen-activated protein kinase 4) [SID56476079] — synergy score with BYL719: 0.1; synergy score with cetuximab: 0.265; synergy score with trametinib: -0.109; Call: active
MAPK4 (mitogen-activated protein kinase 4) [SID56476080] — synergy score with BYL719: 0.109; synergy score with cetuximab: 0.0791; synergy score with trametinib: 0.336; Call: active
MAPK4 (mitogen-activated protein kinase 4) [SID56476081] — synergy score with BYL719: -0.0615; synergy score with cetuximab: -0.116; synergy score with trametinib: 0.0276; Call: inactive
MAPK4 (mitogen-activated protein kinase 4) [SID56476082] — synergy score with BYL719: 0.0385; synergy score with cetuximab: -0.00932; synergy score with trametinib: -0.00766; Call: inactive
PLK1 (polo like kinase 1) [SID56475783] — synergy score with BYL719: -0.0311; synergy score with cetuximab: -0.0503; synergy score with trametinib: -0.0188; Call: inactive
PLK1 (polo like kinase 1) [SID56475784] — synergy score with BYL719: -0.12; synergy score with cetuximab: -0.00361; synergy score with trametinib: 0.0616; Call: inactive
PLK1 (polo like kinase 1) [SID56475785] — synergy score with BYL719: -0.0396; synergy score with cetuximab: 0.0879; synergy score with trametinib: -0.0173; Call: inactive
PLK1 (polo like kinase 1) [SID56475786] — synergy score with BYL719: -0.0294; synergy score with cetuximab: -0.0128; synergy score with trametinib: -0.0625; Call: inactive
